The cell viability is a read-out of living cells in per cent, often relative to untreated cells.

Several values for one entry are separate records, joined by “and”; a condition that tells them apart may be missing. Equal entries are not always repeated. Structures can show the parent of a compound that is named as a salt. ± gives the standard deviation of the averaged measurements. The list shows a part of the results. Most values come without repeats; read them as rough.

In the supplement of paper PMC3682954 one finds cell viability data, which are given here for 43 compounds.

In the test the test system is RAW 264.7. In words: cell viability (MTT) relative to vehicle control; higher = more viable cells. The conditions noted are these: stimulus: HMGB1 5 ug/ml, 18 h.
[1] abbreviates: compound concentration: 1 ug/ml.

Take `Cc1cc(O)c2c(c1)C(=O)c1cc(O)cc(O)c1C2=O` [Emodin]: the cell viability is, setting by setting: under setting [1], 102%; (compound concentration: 3 uM) 104%.
As to `OCC1OC(Oc2ccc3c(c2)OC[C@H]2c4cc5c(cc4O[C@@H]32)OCO5)C(O)C(O)C1O` (some centres undefined), under setting [1], the cell viability amounted to 97.9%.
Take `Clc1ccc(Nc2nnc(Cc3ccncc3)c3ccccc23)cc1` [Vatalanib]: the cell viability (compound concentration: 3 uM) turned out to be 128 ± 21%.
Turning to `Nc1ccc2c3c(cccc13)C(=O)NC2=O` [4-Amino-1,8-naphthalimide], the cell viability (compound concentration: 3 uM) was found to be 104%.
Consider `C[N+](C)(C)CCO.[Cl-]`, for which the cell viability (compound concentration: 3 uM) was 113%.
Regarding `C/C=C1\[C@H]2C=C(C)C[C@]1(N)c1ccc(=O)[nH]c1C2`, the cell viability (compound concentration: 3 uM) is 100%.
With `O=C(Oc1cccc2cccnc12)c1ccccc1`, where the note is “compound concentration: 3 uM”, the cell viability stood at 108%.
Turning to `CN1CCC(OC(c2ccccc2)c2ccccc2)CC1` [Diphenylpyraline hydrochloride], the cell viability (compound concentration: 3 uM) came to 113%.
On the same count and under the same terms, with `CN1CCC(OC(c2ccccc2)c2ccccc2)CC1` the figure was 100%; with `NCCC[C@H](N)CC(=O)N[C@H]1CNC(=O)[C@H]([C@H]2C[C@H](O)NC(N)=N2)NC(=O)/C(=C/NC(N)=O)NC(=O)[C@H](CO)NC(=O)[C@H](CO)NC1=O` [Viomycin sulfate], 94.6%; with `CN(C)CCCN1c2ccccc2CCc2ccccc21` [Imipramine], 99%.
As for `CN(C)CCCN1c2ccccc2CCc2ccccc21`, under “compound concentration: 3 uM”, the cell viability worked out at 98.5%.
As for `CN(C)CCCN1c2ccccc2CCc2ccccc21` [Imipramine hydrochloride], the cell viability (compound concentration: 3 uM) came to 103 ± 12%.
In the case of `Cc1cccc(C(=O)NCN2CCN(c3ccccc3C#N)CC2)c1` [PD 168,077 maleate], the cell viability (compound concentration: 3 uM) came to 113%.
With `C[C@H]1COc2c(N3CCN(C)CC3)c(F)cc3c(=O)c(C(=O)O)cn1c23`, the cell viability (compound concentration: 3 uM) was determined as 102 ± 4.1%.
Still for that read-out and setting: next, `C[C@H]1COc2c(N3CCN(C)CC3)c(F)cc3c(=O)c(C(=O)O)cn1c23` [Levofloxacin]: 102%; `NC(CO)C(=O)NNCc1ccc(O)c(O)c1O` (centres undefined) [Benserazide]: 86.3%; `NC(CO)C(=O)NNCc1ccc(O)c(O)c1O` (centres undefined): 111%.
Same read-out and setting: with `NC(CO)C(=O)NNCc1ccc(O)c(O)c1O` (centres undefined) [Benserazide hydrochloride] the figure was 87.2 ± 7.9%; with `Nc1nc(O)c2ncn(CCC(CO)CO)c2n1`, 97.5%; with `Nc1nc(O)c2ncn(CCC(CO)CO)c2n1` [Penciclovir], 104 ± 12%.
As to `Fc1ccc([C@@H]2CCNC[C@H]2COc2ccc3c(c2)OCO3)cc1`, where the note is “compound concentration: 3 uM”, the cell viability amounted to 98.9%.
Take `Fc1ccc([C@@H]2CCNC[C@H]2COc2ccc3c(c2)OCO3)cc1` [Paroxetine hydrochloride hemihydrate (MW = 374.83)]: the cell viability (compound concentration: 3 uM) is 109%.
Same read-out and setting: next, `Fc1ccc([C@@H]2CCNC[C@H]2COc2ccc3c(c2)OCO3)cc1` [Paroxetine]: 103 ± 15%; `Fc1ccc([C@@H]2CCNC[C@H]2COc2ccc3c(c2)OCO3)cc1` [Paroxetine Hydrochloride]: 89.5%.
Still for that read-out and setting: with `O=c1[nH]cnc2c1ncn2[C@H]1CC[C@@H](CO)O1` the figure was 99.6%; with `O=c1[nH]cnc2c1ncn2[C@H]1CC[C@@H](CO)O1` [Didanosine], 104 ± 2.6%.
The same measure, in the same setting: next, `CN(C/C=C/C#CC(C)(C)C)Cc1cccc2ccccc12` [Terbinafine]: 118%; `CN(C/C=C/C#CC(C)(C)C)Cc1cccc2ccccc12`: 112% and 97.7%.
Turning to `NCC[C@H](O)C(=O)N[C@@H]1C[C@H](N)[C@@H](O[C@H]2O[C@H](CN)[C@@H](O)[C@H](O)[C@H]2O)[C@H](O)[C@H]1O[C@H]1O[C@H](CO)[C@@H](O)[C@H](N)[C@H]1O` [Amikacin hydrate], under “compound concentration: 3 uM”, the cell viability was found to be 117%.
The same measure, in the same setting: with `NCC[C@H](O)C(=O)N[C@@H]1C[C@H](N)[C@@H](O[C@H]2O[C@H](CN)[C@@H](O)[C@H](O)[C@H]2O)[C@H](O)[C@H]1O[C@H]1O[C@H](CO)[C@@H](O)[C@H](N)[C@H]1O` the figure was 107%; with `O=C1c2cccc3c2[C@H](CCC3)CN1[C@@H]1CN2CCC1CC2`, 101%; with `Cc1cc2nc3c(=O)[nH]c(=O)nc-3n(CC(O)C(O)C(O)COP(=O)(O)O)c2cc1C` (centres undefined), 97.6%.
As for `COc1cc(/C=C/C(=O)CC(=O)/C=C/c2ccc(O)c(OC)c2)ccc1O` [Curcumine], the cell viability under setting [1] turned out to be 96.1%.
As for `O=C1C(SCCO)=C(SCCO)C(=O)c2ccccc21`, for the setting “compound concentration: 3 uM”, the cell viability came out at 25.2%.
As to `CC1CC2(C)Oc3ccccc3C3OCC1(COC(=O)Nc1ccccc1)C(C)C32` (centres undefined), the cell viability under setting [1] stood at 94.2%.
Turning to `OCCN1C[C@H](O)[C@@H](O)[C@H](O)[C@H]1CO`, under “compound concentration: 3 uM”, the cell viability came to 98.7 ± 10%.
`OCCN1C[C@H](O)[C@@H](O)[C@H](O)[C@H]1CO` [Miglitol]: the cell viability (compound concentration: 3 uM) was determined as 81.8%.
Regarding `CC1(C)CCC2=C(O1)c1ccccc1C(=O)C2=O` [beta-Lapachone], under “compound concentration: 3 uM”, the cell viability was 92.7%.
For the compound `CC(=O)OCC[N+](C)(C)C`, under “compound concentration: 3 uM”, the cell viability turned out to be 108%.
`CC(=O)OCC[N+](C)(C)C` [Acetylcholine]: for the setting “compound concentration: 3 uM”, the cell viability was determined as 121%.
Regarding `CC(C)C(=O)Nc1ccc([N+](=O)[O-])c(C(F)(F)F)c1`, the cell viability (compound concentration: 3 uM) amounted to 107%.
Take `CC(C)C(=O)Nc1ccc([N+](=O)[O-])c(C(F)(F)F)c1` [Flutamide]: the cell viability (compound concentration: 3 uM) stood at 101 ± 9%.
